Where “and” joins values, the source holds several entries; their conditions need not be identical. Equal entries are not always repeated. Screen size: about 360,000 compounds; about 7,500 (2.1%) were called active. The shares of active, inactive and inconclusive entries below differ from those in the screen. Calls come from the whole dose curve; as a rule, active = well fitted inhibition curve with a large enough effect; inconclusive = small, poorly fitted or top-dose-only effect, or effect the other way; inactive = flat fitted curve, though single readings scatter. Potencies of inconclusive entries are doubtful fits and often do not repeat.
Test: Nrf2 qHTS screen for inhibitors; note: nearly all actives have a fitted effect of over 60% in size
Conditions: A549 ARE-Fluc reporter, luciferase luminescence, 18-24 h; activity change, negative = inhibition: at 46 µM (top of the series)
How it was run: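 Two sequential reads on A549 ARE_Fluc cells exposed to compound for 18-24 h: a CellTiter-Fluor fluorescence read for viability, then a luciferase luminescence read for Nrf2/ARE activity.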
% is set by controls: 0 for no effect and ±100 for the full control effect; potency is the fitted concentration of half-maximal effect.

SMILES | activity change, negative = inhibition | Potency
Cc1ccc2nc(SCC(=O)Nc3ccc(F)c([N+](=O)[O-])c3)[nH]c2c1 | inactive: 9.52% | –
N/C(=N\OC(=O)c1cccs1)c1cccc(Br)c1 | – | inconclusive: 18.4 µM [activator, partial curve]
C/C(=N\Nc1cc(N2CCOCC2)ncn1)c1ccccc1 | – | inconclusive: 3.26 µM [activator, partial curve]
O=C(Nc1ccc2c(c1)OCCO2)c1cnc2n(c1=O)CCS2 | – | inconclusive: 16.4 µM [activator, single point]
O=C(CCCOc1ccc(Br)cc1)NCCc1ccc(OC(F)F)cc1 | – | inconclusive: 16.4 µM [falling, single point]
Cc1cc(C(=O)COC(=O)Cc2n[nH]c(=O)c3ccccc23)c(C)n1-c1cccc(C(F)(F)F)c1 | inactive: -23.7% | –
O=C1S/C(=C\c2ccc(O)c([N+](=O)[O-])c2)C(=O)N1Cc1cccc([N+](=O)[O-])c1 | – | inconclusive: 29.1 µM [falling, single point]
CC(C(=O)N(C)C)N1c2cccc3cccc(c23)S1(=O)=O (centres undefined) | – | inconclusive: 6.51 µM [falling, single point]
Cc1cccc(N=C2N=C(N)c3ccccc32)c1 | – | inconclusive: 13 µM [falling, partial curve, poor fit]
O=C(Nc1cccc(C(F)(F)F)c1)c1csc(-c2ccncc2)n1 | – | inconclusive: 13 µM [falling, partial curve]
Cc1cccc(NS(=O)(=O)c2ccc3c(c2)NC(=O)CO3)c1C | – | inconclusive: 13 µM [falling, partial curve, poor fit]
COc1ccc(Cn2nnnc2CN(Cc2cc3cccc(C)c3[nH]c2=O)C2CCCC2)cc1 | – | inconclusive: 20.6 µM [falling, single point]
O=C(Nc1nsc(-c2ccccc2)n1)c1ccc(F)cc1 | inactive: 5.04% | –
O=C(Nc1ccc(Cl)cc1)C1C2CCCCC21 (centres undefined) | – | inconclusive: 1.84 µM [activator, full curve]
Cc1ccc2c(C)nc(N/C(N)=N/S(=O)(=O)c3ccccc3)nc2c1 | inactive: 2.89% | –
N#Cc1c(NC(=O)/C=C/c2ccco2)sc2c1CCCC2 | – | inconclusive: 0.651 µM [activator, full curve]
O=C(Cn1nc(-c2ccccc2)c2ccccc2c1=O)Nc1ccc(O)cc1 | inactive: 4.22% | –
Cc1ccc(N(C)S(=O)(=O)c2cccc(C(=O)NC3=NCCS3)c2)cc1 | – | inconclusive: 29.1 µM [falling, partial curve, poor fit]
COc1ccc(C(=O)NNC(=O)c2ccc(S(=O)(=O)N3CCOCC3)cc2)cc1 | – | inconclusive: 0.146 µM [falling, partial curve, poor fit]
COc1ccc(C(C(=O)NC2CCCCC2)N(C(=O)c2snc(C(N)=O)c2N)c2ccc(OC)cc2OC)cc1 (centres undefined) | inactive: -4.14% | –
COc1cccc(N2C(=O)C(CC(=O)Nc3cccc(F)c3)N(C(C)C)C2=O)c1 (centres undefined) | – | inconclusive: 29.1 µM [activator, single point]
CCc1nnc(NC(=O)CCC(=O)NC2CCCC2)s1 | – | inconclusive: 20.6 µM [falling, partial curve, poor fit]

SMILES | activity change, negative = inhibition | Potency
Cc1cc(N2CCCCC2)nc2ccc(NC(=O)c3ccc(F)cc3)cc12 | – | inconclusive: 18.4 µM [falling, partial curve]
Cc1ccccc1CC(=O)Nc1ccc(C(=O)N2CCCC2)cc1 | inactive: 0.0146% | –
O=C1CC(=C(c2ccccc2)c2ccccc2)C(=O)N1CCCCN1CCN(c2ccccc2)CC1 | inactive: -1.65% | –
CCN(CC(=O)Nc1cccc(OC)c1)CC(=O)Nc1ccc(Br)c(C)c1 | – | inconclusive: 29.1 µM [falling, single point]
CCOC(=O)c1c(NC(=O)CSc2cn(CCNC(=O)c3ccc(OCC)cc3)c3ccccc23)sc2c1CCCC2 | – | inconclusive: 16.4 µM [falling, partial curve]
CCN1C(=O)[C@H]2[C@@H](c3ccc(-c4ccc(Cl)c(Cl)c4)cc3)N3CCCC[C@@]3(C(=O)OC)[C@H]2C1=O | – | inconclusive: 16.4 µM [falling, single point]
O=C(Nc1ccc([N+](=O)[O-])cc1)OCCc1ccccn1 | – | inconclusive: 14.6 µM [activator, partial curve, poor fit]
Cc1cccc(NC2=C(Cl)C(=O)OC2OC(C)C)c1 (centres undefined) | – | inconclusive: 5.17 µM [activator, full curve]
CCC1(c2ccc(C)cc2)NC(=O)N(CC(=O)Nc2cccc(S(=O)(=O)N3CCCC3)c2)C1=O (centres undefined) | – | inconclusive: 29.1 µM [falling, partial curve, poor fit]
CC(CNC(=O)Cn1ncc2c3ccccc3n(Cc3cccc(Cl)c3)c2c1=O)c1ccccc1 (centres undefined) | – | inconclusive: 23.1 µM [falling, partial curve, poor fit]
C=CCNc1nc(-c2ccccn2)nnc1-c1ccccc1 | – | inconclusive: 29.1 µM [falling, single point]
O=C(CCNC(=O)C1CCN(S(=O)(=O)c2ccccc2)CC1)NCc1cccc(C(F)(F)F)c1 | – | inconclusive: 32.6 µM [falling, single point]
Cc1cc(C)cc(OCC(=O)Nc2cccc(-c3nc4ncccc4o3)c2)c1 | – | inconclusive: 18.4 µM [falling, single point]
O=C(c1ccco1)N1CCN(c2ncnc3sc4c(c23)CCC4)CC1 | – | inconclusive: 11.2 µM [falling, partial curve, poor fit]
Cc1ccc(C(=O)Cn2ncsc2=N)cc1 | – | inconclusive: 7.31 µM [activator, partial curve]
Nc1nc(=S)c2[nH]cnc2[nH]1 | – | inconclusive: 2.06 µM [falling, full curve]
CCOc1ccc(C(=O)Nc2ccc(S(=O)(=O)N(Cc3ccccc3)c3ccccc3)cc2)cc1 | – | active: 2.06 µM
O=C(Nc1ccc(N2CCN(C(=O)c3cccs3)CC2)cc1)c1cccc(F)c1 | – | inconclusive: 29.1 µM [activator, single point]
CCC(C(=O)Nc1ccc(N2CCOCC2)c(S(=O)(=O)Nc2ccccc2OC)c1)c1ccccc1 (centres undefined) | – | inconclusive: 8.2 µM [falling, partial curve]
COc1cccc(/C=N/Nc2nc(Nc3ccc([N+](=O)[O-])cc3)nc(N3CCCC3)n2)c1O | inactive: -6.17% | –
CCC(NC(=O)Nc1nnc(C(F)(F)F)s1)(C(F)(F)F)C(F)(F)F | – | active: 3.66 µM
Cc1ccnc(NC(=O)c2ccc(N3C(=O)CCC3=O)cc2)c1 | – | inconclusive: 20.6 µM [activator, partial curve, poor fit]

Quoted at random: two records from the list
SMILES | activity change, negative = inhibition | Potency
N/C(=N\OC(=O)c1cccs1)c1cccc(Br)c1 | – | inconclusive: 18.4 µM [activator, partial curve]
CCN1C(=O)[C@H]2[C@@H](c3ccc(-c4ccc(Cl)c(Cl)c4)cc3)N3CCCC[C@@]3(C(=O)OC)[C@H]2C1=O | – | inconclusive: 16.4 µM [falling, single point]

More structures:

SMILES | activity change, negative = inhibition | Potency
Cc1ccc(NC(=S)N/C(=N/S(=O)(=O)c2ccccc2)c2ccccc2)cc1 | – | inconclusive: 10.3 µM [activator, partial curve] and inconclusive: 23.1 µM [activator, single point]
O=C(c1ccccc1)N1CCC(c2nc(-c3ccc(S(=O)(=O)N4CCOCC4)cc3)no2)CC1 | – | inconclusive: 8.2 µM [falling, partial curve, poor fit]
COc1ccc(S(=O)(=O)N2CCOCC2)cc1NC(=O)CO/N=C/c1ccccc1OC(F)F | inactive: -6.76% | –
O=C(Cc1ccccc1)N/N=C/c1cccs1 | inactive: 5.1% | –
CCN(C(=O)COC(=O)/C=C/c1ccc(Cl)c(Cl)c1)c1c(N)n(Cc2ccccc2)c(=O)[nH]c1=O | – | active: 14.6 µM
CCOc1cc(/C=N/NC(N)=O)cc(Br)c1OCC(=O)Nc1ccccc1C | inactive: -11.5% | –
CC(C)CN(CC(C)C)S(=O)(=O)N1CCC(C(=O)NCc2ccccn2)CC1 | inactive: 12.9% | –
O=C(Nc1ccc(O)cc1)c1cc(S(=O)(=O)N2CCCC2)ccc1Cl | – | inconclusive: 23.1 µM [falling, single point]
Cc1ccc(OCc2cc(C(=O)N3CCCCCCC3)no2)cc1C | – | inconclusive: 13 µM [activator, partial curve]
CC(O)c1nc2ccccc2n1C1CCCCC1 (centres undefined) | – | inconclusive: 5.8 µM [falling, single point]
COc1ccc(/C=C/C2=CC(C)(C)NC(=S)N2)c(OC)c1 | – | inconclusive: 36.6 µM [falling, partial curve, poor fit]
Cc1ccc(CNc2ncnc3cc(-c4ccc5c(c4)OCO5)ccc23)o1 | inactive: 4.57% | –
CC(=O)NCCc1nc2ccccc2n1CCCCOc1ccc(Cl)cc1 | – | inconclusive: 16.4 µM [falling, single point]
Cc1cc(NC(=O)CCC(=O)N(c2ccccc2)C(C(=O)NC2CCCC2)c2ccccc2F)no1 (centres undefined) | inactive: 4.87% | –
COC(=O)c1cc(NC(=O)c2cc(C(C)(C)C)nn2Cc2cccc(C)c2)ccc1N1CCOCC1 | – | inconclusive: 23.1 µM [falling, partial curve]
CCN(C[C@H]1N[C@@](C)(C(=O)OC)[C@H]2C(=O)N(C)C(=O)[C@@H]12)C(=O)COc1ccccc1 | – | inconclusive: 29.1 µM [falling, partial curve, poor fit]
COc1ccc(NS(=O)(=O)c2ccc3nc(COc4ccc5ccccc5c4)[nH]c3c2)cc1 | – | inconclusive: 29.1 µM [falling, single point]
COCC(C)n1c(SCc2ccc(C(=O)OC)o2)nc2ccccc2c1=O (centres undefined) | – | inconclusive: 29.1 µM [falling, single point]
C/C(O)=c1/ccc2cccc3nc(C)nc1c23 | – | inconclusive: 7.31 µM [falling, partial curve, poor fit]
CCCCCCOC(=O)C1=C(C)NC(=O)NC1c1ccc2c(c1)OCO2 (centres undefined) | – | inconclusive: 16.4 µM [falling, single point]

Part of the list above, as a markdown table.

| SMILES | activity change, negative = inhibition | Potency |
| --- | --- | --- |
| O=C(Nc1ccc(O)cc1)c1cc(S(=O)(=O)N2CCCC2)ccc1Cl | – | inconclusive: 23.1 µM [falling, single point] |
| Cc1ccc(OCc2cc(C(=O)N3CCCCCCC3)no2)cc1C | – | inconclusive: 13 µM [activator, partial curve] |
